Holding throughout (assay): EMSA
Data set [1] deals with GST-Clr4-C (C1) (Schizosaccharomyces pombe) (UniProt O60016). Particulars: EMSA: 20 mM Tris-HCl pH 7.5, 1 mM DTT, 0.1 mg/ml BSA; RNA on ice 30 min; DNA and nucleosomes 37 C 15 min; 5% native PAGE, 0.5x TBE; recombinant protein; residues 192-490; protein details: GST; label: none (SYBR Gold stain); probe letters rebuilt from the primers and the genome.
The target of data set [2] is GST-Clr4-CD (N1) (Schizosaccharomyces pombe) (UniProt O60016). As to conditions: EMSA: 20 mM Tris-HCl pH 7.5, 1 mM DTT, 0.1 mg/ml BSA; RNA on ice 30 min; DNA and nucleosomes 37 C 15 min; 5% native PAGE, 0.5x TBE; recombinant protein; residues 1-62; protein details: GST; label: none (SYBR Gold stain); probe letters rebuilt from the primers and the genome.
Data set [3] has as its target GST-Clr4-N8 (Schizosaccharomyces pombe) (UniProt O60016). As to conditions: EMSA: 20 mM Tris-HCl pH 7.5, 1 mM DTT, 0.1 mg/ml BSA; RNA on ice 30 min; DNA and nucleosomes 37 C 15 min; 5% native PAGE, 0.5x TBE; recombinant protein; residues 127-191; protein details: GST; label: none (SYBR Gold stain); probe letters rebuilt from the primers and the genome.
The target of data set [4] is Clr4 full-length WT (Schizosaccharomyces pombe) (UniProt O60016). As to conditions: EMSA: 20 mM Tris-HCl pH 7.5, 1 mM DTT, 0.1 mg/ml BSA; RNA on ice 30 min; DNA and nucleosomes 37 C 15 min; 5% native PAGE, 0.5x TBE; recombinant protein; residues 1-490; protein details: His-SUMO removed by Ulp1 (pCold-SUMO-TEV); label: none (SYBR Gold stain); probe letters rebuilt from the primers and the ….

By UniProt entry, the sequences of proteins in these tests, tags left out. Residues count along the entry.
UniProt O60016, 192-490: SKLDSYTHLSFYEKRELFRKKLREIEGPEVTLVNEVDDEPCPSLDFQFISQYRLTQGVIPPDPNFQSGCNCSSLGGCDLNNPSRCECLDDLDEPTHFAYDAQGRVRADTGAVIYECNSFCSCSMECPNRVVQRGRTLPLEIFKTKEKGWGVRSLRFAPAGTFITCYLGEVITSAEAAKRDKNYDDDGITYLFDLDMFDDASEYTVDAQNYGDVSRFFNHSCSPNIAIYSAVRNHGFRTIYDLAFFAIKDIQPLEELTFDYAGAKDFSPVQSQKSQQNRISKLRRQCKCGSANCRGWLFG
UniProt O60016, 1-62: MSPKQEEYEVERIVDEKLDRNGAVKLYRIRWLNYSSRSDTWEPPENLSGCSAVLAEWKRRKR
UniProt O60016, 127-191: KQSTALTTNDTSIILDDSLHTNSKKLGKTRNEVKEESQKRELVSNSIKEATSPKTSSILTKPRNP
UniProt O60016, whole entry: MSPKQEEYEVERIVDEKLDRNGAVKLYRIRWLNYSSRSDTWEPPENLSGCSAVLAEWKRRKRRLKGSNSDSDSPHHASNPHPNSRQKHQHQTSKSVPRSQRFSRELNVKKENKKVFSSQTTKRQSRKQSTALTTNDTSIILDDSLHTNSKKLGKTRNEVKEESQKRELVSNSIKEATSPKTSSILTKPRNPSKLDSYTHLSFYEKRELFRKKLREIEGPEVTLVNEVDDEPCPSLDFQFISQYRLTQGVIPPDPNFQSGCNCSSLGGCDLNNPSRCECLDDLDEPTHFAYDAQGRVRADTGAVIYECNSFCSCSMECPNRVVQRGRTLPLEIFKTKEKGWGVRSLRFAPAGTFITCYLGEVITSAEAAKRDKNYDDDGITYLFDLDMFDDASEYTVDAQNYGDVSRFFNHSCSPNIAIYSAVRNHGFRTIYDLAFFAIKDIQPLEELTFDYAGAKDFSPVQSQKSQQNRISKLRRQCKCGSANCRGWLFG

For some assays here: A negative result means that nothing was seen under these conditions.

For the sequence “GGGAGCCUCAAGUGACUGCAUUAAAGCAUAAUACCGAAGCACUGACAUAACAGAGAGGUUCAGAAAGGAAUUUAAAGAUUGACUUUUUCGACAAACUUCAUGUUACAAGUCUUAUCGUUUGUGUUUAUAAAUCAUCAGCCUCUCUCUAUAUCUCUAUAUCUCUAUAUAUCAGAUAUAAAGAUGCAAGUUUUGAAGUAGACAUUCCGCACAAAGUCUAGUACACCAUGUCUCUUGUGCUCAGGCUGGUUGUCCUGCAAAAAUGUACAACAGGCAAAUGGAUGUUUCAUCAAAGAUGGACUCCUUUGUCUCAUACUUAUUGAUGGCGAAGCUAGAUCCGUUAUCAUCUUGAGAAAACACAUCGUUGUCUUCAGAGUAGCCC [pericentromeric repeat RNA, 379 nt]”, the binding result is on record as “no binding” in data set [1], “no binding” in data set [2], “no binding” in data set [3] and “binds” in data set [4].
With “GGGUACCUUUGGGACGUGGUCUCUUGCUUUUGGCUGAAAUGUCUUCCAAAGGCUCUUUGGCUACUGGUUCCUACACAGAGAAAACCUUAGAAUGGUUUGAGAAGCAUACCGAUUUUUGCUUUGGCUUUAUAGCUGGUCGUCGAUUUCCUAACCUUCAAAGCGACUACAUAACUAUGUCCCCUGGUAUCGGCUUGGAUGUUAAAGGAGACGGGCUGGGACAGCAAUAUCGUACUCCUGAAGAAGUGAUUGUAAACUGCGGUAGCGAUAUCAUCAUUGUUGGUCGUGGAGUCUAUGGAGCUGGUCG [ura4+ RNA, 304 nt]”, in data set [4], the binding result is “binds”.
